Experimental data published in PubChem BioAssay AID1508600 (Functional Genomics Laboratory (NCATS/FGL), 2020).
Screen size: about 53,000 sequences; about 3,700 (7%) were called active.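 How the source made its calls: active means gene knockdowns whose robust z-score for IL-1 alpha signal is at least 2 or at most -2, so actives lie on both sides; inactive means the rest.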 The list shows a part of the results.

Assay: Components of the Cytosolic LPS Sensing Pathway: Gene Identification via Genome-wide siRNA Screen;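 further: robust z of the log signal after scaling to non-targeting control siRNA wells of the plate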
Conditions: RAW264.7 macrophages, IL-1a HTRF, actives lie on both sides, screened at 100 nM (by protocol), cells primed 5 h with Pam3CSK4 first
Summary of the method: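 Mouse macrophage line RAW264.7 is transfected with siRNA (100 nM final), grown 48h, primed with TLR ligand Pam3CSK4 5 h and given intracellular LipidA 24 h. IL-1a in supernatant is read by HTRF and viability by luminescence.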
In the case of GGAGCUUCUAGACUGUACCTT against Lrmp, the z-score is reported as active: 2.03.
For GCUUAUACGAAGAUAAUUGTT against Hmgb1, the z-score was inactive: 0.413.
In the case of GGUAGAUCAUGGCCAUCCUTT against Ntf5, the z-score is reported as active: 2.04.
For “GGAGGAACGGAAAAAGGUUTT against 1700088E04Rik”, the z-score was inactive: -1.07.
For GCAACAACUACGCAUGCUCTT against Snap25, the z-score was inactive: -0.188.
In the case of GGUCGUCCCAUCAAUGUGCTT against Cpa1, the z-score is reported as inactive: -0.543.
With GCAAUGGAAUUCUCGUGCCTT against Cth the z-score was inactive: 0.744.
In the case of CGAAGGAUUCAGAUAAAGUTT against Trim13, the z-score is reported as inactive: 1.06.
In the case of GGAACAUCAAGGGAAUUAUTT against Zfp638, the z-score is reported as active: 2.36.
With GGUUCGAGAAAACAACUACTT against Trmt5 the z-score was inactive: 0.0497.
In the case of GGUUGUCUGUCUGUCCAUCTT against Marchf1, the z-score is reported as inactive: -1.14.
With GGAUUUGGUGCAUCUUCCGTT against Olfr609 the z-score was inactive: -0.0126.
In the case of GGUUAUUUCUUUGCUUUGCTT against Apod, the z-score is reported as inactive: 0.929.
In the case of GCAGGCAAAGUUCCUGAUATT against Cdh2, the z-score is reported as inactive: 1.19.
In the case of GGUGUUAUUUUACACAAAGTT against Gla, the z-score is reported as inactive: 1.21.
For GGUUUUGCAUAAGAUCAUUTT against Rrp1, the z-score was inactive: -0.709.
For GGCAUCGGGAGUUCCAAUUTT against St18, the z-score was inactive: 1.33.
In the case of GGAAUUAGAAAAAGUUUCCTT against Ddx58, the z-score is reported as inactive: 0.551.
For GGUUCUGUUCCAGUUUUAATT against Il21, the z-score was inactive: 1.19.
In the case of GCCUGAGAAGAUUAUACCATT against Inpp5f, the z-score is reported as inactive: 0.803.
For GGGAAUUAGGGCUCAAUGATT against Rbm41, the z-score was inactive: -0.132.
With CGGUAGUCUUGUGUGUUGGTT against Rps27 the z-score was inactive: 0.63.
With CCUUCUGCGGCUCAGUCUATT against Bach2os the z-score was inactive: -0.199.
With GGCCAACUUCCUUUUUAAATT against Tomm40 the z-score was inactive: -0.0619.
With CCAGACAUCGUGCUUUACATT against Chrna3 the z-score was inactive: 1.42.
With GCUUAAAUAGCACAGAUUUTT against Mfsd11 the z-score was inactive: 0.187.
With GGAGAUUGCAUCCUACCUGTT against Camta2 the z-score was inactive: 0.829.
With GGAUGUGAAGCAGUUCUAUTT against Cd81 the z-score was inactive: -0.179.
With GCUUCUAGGGACCUAUUAATT against Dhx30 the z-score was inactive: -0.0854.
For GGAGCUAGAGCUGAAGGAUTT against Ifi27l2b, the z-score was inactive: 0.778.
In the case of CCUGCUUCGAAAGAUCUCCTT against Serpina10, the z-score is reported as inactive: 0.541.
In the case of GGCAUUCAGAAAUCCAGUATT against Zdhhc2, the z-score is reported as inactive: -0.942.
For AUGAAAACCAUUCCCAAUUTT against Olfr435, the z-score was active: 5.22.
With CGGCCACUAUAUGACAUUATT against Upk3b the z-score was inactive: -0.12.
In the case of GGAUGAGAUGGGAAUUGUATT against Otor, the z-score is reported as inactive: 0.0183.
For GGGAGAACACAAACAGAAATT against Dab1, the z-score was inactive: 1.1.
With GCCAUAAGGCAGAAUCCAATT against P4htm the z-score was inactive: -1.42.
For CCUAAGUUAUUGUUAACUGTT against Gata2, the z-score was inactive: 0.661.
With GGUUGUCCGGAUUGCUUGUTT against Olfr734 the z-score was inactive: -0.502.
For GGAUAGCAACCAGUUUCAUTT against Mvd, the z-score was inactive: -0.832.
For GCUCUGUCUUAAGAGACUATT against Smo, the z-score was active: 2.39.
For GGCUGUGGAUAAAGCUAAUTT against Gpn2, the z-score was inactive: 0.311.
For GGGAAAGAUAAGCUCAAGGTT against Sh2d2a, the z-score was inactive: 1.32.
For GGACAAAGAAUUUCAACAATT against Gsg1, the z-score was inactive: -1.25.
For GGACGAUUGCCAUAUGAACTT against Ice2, the z-score was inactive: -0.99.
For CCGGCAGAAUAAGAAAGUATT against Gigyf2, the z-score was inactive: -1.41.
In the case of GCCAUGUUUCUGAGAACUUTT against Slc27a3, the z-score is reported as inactive: 0.55.
For GGCAAAGUGGUAGAAAAAATT against Neurl3, the z-score was inactive: 0.555.
With GCUAAAUUCUUUCCUGAAGTT against Rdx the z-score was inactive: -1.
With CGUACUCUUUCUUUAAUCCTT against Umod the z-score was inactive: -0.622.
For GCGGACAUGAGUUUGAAUGTT against Bnipl, the z-score was inactive: -0.858.
With GCUGUCCACUGCUUAAAUCTT against Isyna1 the z-score was inactive: -0.982.
For GGAGAACAAGUUGUCUGUCTT against Olfr118, the z-score was inactive: -1.16.
With GGCCAAAUGGAAUAAGAAGTT against Wdr59 the z-score was inactive: 0.774.
With GGUCAUACAUUUGUCAUCATT against Bend7 the z-score was inactive: -0.336.
For GGUGUUAAUCCAGUUCAAUTT against Bbs12, the z-score was active: 2.26.
For GGAGCACAGUUUUGGUGCUTT against Olfr576, the z-score was inactive: 1.82.
For GCCUCGGGUAGUGAAGUCUTT against Zc3h3, the z-score was inactive: -0.18.
For GGCUGUGGUGAACCUAGACTT against Fcgr4, the z-score was inactive: -1.87.
With GCAUUCUAAUCUCUCAUAATT against Krtap4-13 the z-score was inactive: 1.79.
With UGUCUGGAAACCAACAAGGTT against Prb1 the z-score was inactive: 0.244.
With CCUCAUCCAACAUACCUAUTT against Olfr665 the z-score was inactive: -0.665.
For GGGAGCUAGAUCUUUCAUCTT against Lrtm1, the z-score was inactive: -0.0969.
With GGGUGAAGAGAGAUGAAAATT against Krt82 the z-score was inactive: 1.64.
With GGCUAUUCCGCAUUCUACGTT against Ldah the z-score was inactive: -0.576.
With GGGUCUCAUGAAGAAAUUUTT against Pcgf5 the z-score was inactive: -0.772.
In the case of CGUAUAACUAAUGAUGCCATT against Snap23, the z-score is reported as inactive: -0.189.
With GGACUAUGGGUGCACCAAUTT against Lat2 the z-score was inactive: -1.2.
In the case of GGAGAUUAACCCACAAACUTT against Rps6ka3, the z-score is reported as inactive: 1.99.
In the case of CCAACCUGCUUGCCAAUUGTT against Rubcnl, the z-score is reported as inactive: -1.7.
For CGAAGUCUAGCAGAACUCUTT against Kcne1l, the z-score was inactive: 0.521.
With GCUAAACCUACAAUUGAUUTT against Ccdc117 the z-score was inactive: -0.834.
With GGGAUCUUUCCAGAGUUUGTT against Prp15 the z-score was inactive: 1.05.
In the case of GGUCACCAAGCAACACAAUTT against Fen1, the z-score is reported as active: 2.56.
With GGAGAAACCUAAAGACAUATT against Mocs2 the z-score was inactive: 0.224.
For GCCAAAGUAGUUGAACCUUTT against Cibar1, the z-score was inactive: -0.48.
With CCAAUCACCAGAGACUAACTT against Slain1 the z-score was active: 2.81.
In the case of CCUUGUCUGGCAACAUCGATT against Cpt1c, the z-score is reported as inactive: -0.33.
For CGAAGCCAAUAAAUGCAGCTT against Pmis2, the z-score was inactive: 0.00297.
For CCAAGUGGAUCCCGCUUGUTT against Rhot2, the z-score was inactive: -0.917.
For GGGCUCUGAAUUGAAGAAATT against Ralgps2, the z-score was inactive: -0.163.
With GGUGCAGGACCAUUUCCAUTT against Slc10a6 the z-score was active: 3.25.
With GCUGAACUUAUCAACCAGATT against Nacc1 the z-score was inactive: 0.611.
In the case of GGAGAUUGAGGCACUGAAGTT against Srms, the z-score is reported as inactive: 1.36.
With GGAUGAGGACAAACACGUGTT against Ccdc124 the z-score was inactive: -0.491.
In the case of GGACACCAAUCACAUUUGATT against Cngb3, the z-score is reported as active: -2.21.
For CGAUCUGUGCAACAUCCUGTT against Kcnk18, the z-score was inactive: -0.598.
In the case of CCAUAUUUCGCUAUGGUGCTT against C87436, the z-score is reported as inactive: 0.241.
With GGACAGUAUAGUGGAGAUCTT against Fgf22 the z-score was inactive: 1.66.
With CCACUCCUUACAUGACCAATT against Polr2f the z-score was inactive: -1.5.
With GCUAGGUCAGGGAGUUUUATT against Exosc2 the z-score was active: 3.33.
With GGUAUAUUCGUUCAACAAUTT against Samd9l the z-score was inactive: -0.842.
In the case of GGACUGAACUUCUCAAUGUTT against Folr1, the z-score is reported as inactive: 0.0527.
For GGUUCUGUAUUUAUCUUAGTT against Olfr448, the z-score was inactive: 0.117.
With GGUGAAGAUAAGUAUCUGCTT against Mug2 the z-score was inactive: -0.0586.
For GGUGAAGGUUAAAGAUAUUTT against Pcdha1, the z-score was inactive: -0.0756.
For GGCUGGGUUCCAAAAUACUTT against Crbn, the z-score was inactive: 1.01.
In the case of GGGAUUUCAUAACUGCACUTT against Btrc, the z-score is reported as inactive: 0.48.
With CCUCAUCACACAGGACCCATT against Ppp6r2 the z-score was inactive: -1.59.
In the case of GUCUUUGGAAAUCUACUCATT against Olfr1189, the z-score is reported as inactive: -1.21.
In the case of CCAAUACCAUGACAUUGGGTT against Fabp1, the z-score is reported as inactive: -0.175.
For GGAUGAGCAAUAAUAGAAUTT against Ott, the z-score was inactive: 0.577.
For GGUGAAAAACCAUUUUGUUTT against Zfp764, the z-score was inactive: -1.53.
In the case of GGCAACGGAAUUCCUUAAGTT against Dapk1, the z-score is reported as inactive: -0.0115.
With CGUACAACCCAGGAGUUCUTT against Phxr1 the z-score was inactive: -0.274.
For GCUGGGUAAAUACCAGCAATT against Slc6a14, the z-score was inactive: 0.862.
With GCCAAAUCAGGAACAGCACTT against Trim29 the z-score was inactive: -0.382.
For GGUCAAGGAGUUCAUUCUGTT against Matn2, the z-score was inactive: -1.33.
